## Results of single-concentration screens

The chains behind the UniProt entries cited, without tags or fusion partners. Residues count along the entry.
UniProt P9WPC5, whole entry: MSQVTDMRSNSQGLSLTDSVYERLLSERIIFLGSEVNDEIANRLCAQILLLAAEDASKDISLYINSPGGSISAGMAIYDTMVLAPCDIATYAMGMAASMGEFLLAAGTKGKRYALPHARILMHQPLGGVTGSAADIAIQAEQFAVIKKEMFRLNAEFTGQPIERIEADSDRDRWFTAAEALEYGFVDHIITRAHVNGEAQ
UniProt P9WPC3, whole entry partner: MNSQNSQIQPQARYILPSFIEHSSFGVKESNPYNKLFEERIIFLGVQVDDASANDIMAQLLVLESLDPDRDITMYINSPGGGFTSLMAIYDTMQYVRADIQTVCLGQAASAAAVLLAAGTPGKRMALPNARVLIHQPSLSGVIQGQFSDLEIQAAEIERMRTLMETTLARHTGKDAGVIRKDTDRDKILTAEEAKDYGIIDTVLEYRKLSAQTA
UniProt Q4DA54, 1-478: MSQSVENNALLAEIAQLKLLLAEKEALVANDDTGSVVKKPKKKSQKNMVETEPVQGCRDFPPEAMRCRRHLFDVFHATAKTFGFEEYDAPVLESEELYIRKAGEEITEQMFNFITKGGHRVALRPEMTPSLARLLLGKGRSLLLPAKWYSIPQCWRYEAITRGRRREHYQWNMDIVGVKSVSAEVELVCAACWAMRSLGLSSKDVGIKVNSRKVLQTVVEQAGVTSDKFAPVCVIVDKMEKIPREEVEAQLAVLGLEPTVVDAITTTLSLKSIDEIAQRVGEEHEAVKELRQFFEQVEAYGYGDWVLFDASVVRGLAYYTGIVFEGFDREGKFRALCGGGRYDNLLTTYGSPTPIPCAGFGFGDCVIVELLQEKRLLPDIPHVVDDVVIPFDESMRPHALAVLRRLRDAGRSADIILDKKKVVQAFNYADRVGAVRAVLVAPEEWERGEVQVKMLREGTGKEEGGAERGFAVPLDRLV
UniProt Q8IDJ8, 1-583: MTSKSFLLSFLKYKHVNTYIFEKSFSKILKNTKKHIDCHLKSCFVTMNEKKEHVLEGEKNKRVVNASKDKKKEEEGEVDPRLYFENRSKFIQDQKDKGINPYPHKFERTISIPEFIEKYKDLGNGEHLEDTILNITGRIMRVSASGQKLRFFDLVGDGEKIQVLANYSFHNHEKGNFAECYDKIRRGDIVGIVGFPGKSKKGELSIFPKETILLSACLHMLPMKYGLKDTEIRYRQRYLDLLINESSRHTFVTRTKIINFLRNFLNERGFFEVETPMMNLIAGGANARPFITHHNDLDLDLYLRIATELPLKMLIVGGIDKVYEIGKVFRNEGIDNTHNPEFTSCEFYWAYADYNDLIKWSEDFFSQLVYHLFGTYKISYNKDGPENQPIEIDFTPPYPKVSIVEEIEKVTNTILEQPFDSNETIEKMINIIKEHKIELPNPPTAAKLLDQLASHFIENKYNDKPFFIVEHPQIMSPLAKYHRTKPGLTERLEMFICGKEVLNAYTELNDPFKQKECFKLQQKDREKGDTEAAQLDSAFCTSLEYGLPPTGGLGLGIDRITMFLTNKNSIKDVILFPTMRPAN
UniProt P9WNZ1, whole entry: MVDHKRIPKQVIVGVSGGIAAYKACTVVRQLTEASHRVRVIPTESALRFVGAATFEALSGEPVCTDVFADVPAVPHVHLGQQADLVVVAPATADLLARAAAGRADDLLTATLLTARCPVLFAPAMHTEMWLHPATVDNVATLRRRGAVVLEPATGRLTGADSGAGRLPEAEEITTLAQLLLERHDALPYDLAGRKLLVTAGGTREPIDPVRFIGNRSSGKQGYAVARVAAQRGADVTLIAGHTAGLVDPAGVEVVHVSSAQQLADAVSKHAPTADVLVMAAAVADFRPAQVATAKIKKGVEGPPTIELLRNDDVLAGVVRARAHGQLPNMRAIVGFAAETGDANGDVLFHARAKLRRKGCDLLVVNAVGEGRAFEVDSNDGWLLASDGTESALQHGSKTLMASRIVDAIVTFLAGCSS
UniProt I6X8D2, whole entry: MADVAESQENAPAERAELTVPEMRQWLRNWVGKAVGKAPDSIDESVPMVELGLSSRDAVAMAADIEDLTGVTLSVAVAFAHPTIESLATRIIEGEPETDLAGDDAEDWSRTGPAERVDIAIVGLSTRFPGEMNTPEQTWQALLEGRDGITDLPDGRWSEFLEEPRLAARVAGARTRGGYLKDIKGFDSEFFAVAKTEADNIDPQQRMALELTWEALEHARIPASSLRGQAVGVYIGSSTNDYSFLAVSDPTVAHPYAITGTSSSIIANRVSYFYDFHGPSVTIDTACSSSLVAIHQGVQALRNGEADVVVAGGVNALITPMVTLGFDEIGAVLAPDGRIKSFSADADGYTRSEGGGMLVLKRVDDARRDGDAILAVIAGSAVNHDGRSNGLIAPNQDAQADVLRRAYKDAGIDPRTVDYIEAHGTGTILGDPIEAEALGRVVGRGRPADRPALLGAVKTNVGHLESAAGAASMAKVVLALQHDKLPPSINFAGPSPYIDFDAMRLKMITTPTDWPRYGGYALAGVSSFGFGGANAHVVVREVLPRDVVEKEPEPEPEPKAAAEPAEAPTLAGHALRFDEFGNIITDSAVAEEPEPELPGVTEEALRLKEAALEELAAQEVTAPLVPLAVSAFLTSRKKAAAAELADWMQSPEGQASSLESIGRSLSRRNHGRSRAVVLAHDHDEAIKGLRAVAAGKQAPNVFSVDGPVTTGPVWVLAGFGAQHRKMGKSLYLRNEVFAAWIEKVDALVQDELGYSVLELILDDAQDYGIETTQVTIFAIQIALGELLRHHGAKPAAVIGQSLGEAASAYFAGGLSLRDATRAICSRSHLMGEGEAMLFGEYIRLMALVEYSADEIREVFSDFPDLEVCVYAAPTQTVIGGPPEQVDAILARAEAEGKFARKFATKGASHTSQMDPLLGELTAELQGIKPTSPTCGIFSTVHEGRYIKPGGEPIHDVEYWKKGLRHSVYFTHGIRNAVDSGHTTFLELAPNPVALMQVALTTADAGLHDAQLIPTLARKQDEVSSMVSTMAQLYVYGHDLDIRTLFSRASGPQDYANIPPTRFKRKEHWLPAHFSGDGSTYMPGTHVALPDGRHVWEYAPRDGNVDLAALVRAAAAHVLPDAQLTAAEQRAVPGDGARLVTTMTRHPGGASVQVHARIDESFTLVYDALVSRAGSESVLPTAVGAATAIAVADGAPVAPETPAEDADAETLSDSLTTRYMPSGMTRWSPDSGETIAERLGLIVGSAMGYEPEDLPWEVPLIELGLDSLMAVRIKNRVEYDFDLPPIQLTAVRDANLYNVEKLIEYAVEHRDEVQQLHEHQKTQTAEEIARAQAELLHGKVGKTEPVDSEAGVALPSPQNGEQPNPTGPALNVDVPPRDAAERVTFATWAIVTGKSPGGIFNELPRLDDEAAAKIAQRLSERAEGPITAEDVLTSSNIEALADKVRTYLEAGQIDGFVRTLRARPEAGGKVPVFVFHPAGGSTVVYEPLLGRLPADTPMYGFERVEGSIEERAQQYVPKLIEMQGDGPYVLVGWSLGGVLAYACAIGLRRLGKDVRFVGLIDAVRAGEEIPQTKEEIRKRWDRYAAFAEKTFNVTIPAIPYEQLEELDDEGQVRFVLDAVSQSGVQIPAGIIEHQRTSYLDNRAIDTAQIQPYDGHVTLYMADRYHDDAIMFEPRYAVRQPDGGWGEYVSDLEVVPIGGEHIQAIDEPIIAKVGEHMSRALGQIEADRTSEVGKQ

ClpP1P2: 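ClpP1P2, Mycobacterium tuberculosis (UniProt P9WPC5 and UniProt P9WPC3). Protease assay of ClpP1P2, read by the AMC dye that it sets free. Compounds at 50 µM. Higher reads as stronger inhibition, judged from the few compounds that gave an IC50. Most other retested compounds had strongly negative values. Of about 69,000 compounds tested this way, about 10 (0.015%) reached 50% or more in at least one test.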
TcHisRS: 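Histidine-tRNA ligase, Trypanosoma cruzi CL Brener (UniProt Q4DA54). Enzyme assay of histidyl-tRNA synthetase; the read-out is not stated. Compounds at 30 µM. Higher reads as stronger inhibition (inferred: compounds with an IC50 in retests scored well above the rest). About 69,000 compounds were tested under these conditions; 0.045% (about 31) showed 50% or more at least once.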
PfKRS1: 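Enzyme assay of the cytosolic lysyl-tRNA synthetase in 384-well plates, read by luminescence. Target: Lysine-tRNA ligase, Plasmodium falciparum 3D7 (UniProt Q8IDJ8). Compounds at 30 µM. Higher reads as stronger inhibition, judged from the few compounds that gave an IC50. Of about 69,000 compounds tested this way, about 49 (0.071%) reached 50% or more in at least one test.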
CoaBC: 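Enzyme assay of CoaBC with a phosphate dye (Biomol Green) read at 650 nm. Target: Coenzyme A biosynthesis protein CoaBC, Mycobacterium tuberculosis (UniProt P9WNZ1). Concentration: 30 µM. Higher reads as stronger inhibition, judged from the few compounds that gave an IC50. Most strong results did not repeat in a second test. About 67,000 compounds were tested under these conditions; 0.06% (about 40) showed 50% or more at least once.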
Leishmania in macrophages: 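Cell assay of Leishmania donovani living inside macrophages; the read-out is not stated. Concentration: 30 µM. Higher reads as stronger inhibition (inferred: compounds with an IC50 in retests scored well above the rest). Size under these conditions: about 69,000 compounds, about 1,000 of them at 50% or above in at least one test.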
Pks13 thioesterase: 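Enzyme assay of the thioesterase domain of polyketide synthase 13; the read-out is not stated. Target: Polyketide synthase Pks13, Mycobacterium tuberculosis (UniProt I6X8D2). Concentration: 30 µM. Higher reads as stronger inhibition (inferred from which compounds were picked for retests). Size under these conditions: about 67,000 compounds, about 300 of them at 50% or above in at least one test.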

Each number is a percent effect as filed. The controls that fix the scale are not given in the record; negative values are as filed. The compounds are a random part of those screened. Two or more numbers in one place are separate tests of the same structure; such repeats can differ widely. A dash means the value is not listed here; it may have been measured.

compound,ClpP1P2,TcHisRS,PfKRS1,CoaBC,Leishmania in macrophages,Pks13 thioesterase
Cc1cc(C)n(C2CCN(C(=O)c3cn4ccsc4n3)C2)n1 (stereo not shown),-7.495,2.469,11.29,3.313,32.83,15.11
CO[C@@H]1CO[C@@]2(CCCN(Cc3nc(C)cs3)C2)C1,-7.155,3.015,1.48,-7.27,-,0.3633
CC(C)N1CC2(CCC1=O)CCN(C(=O)c1cccc(F)c1F)CC2,-2.906,6.667,-0.229,-1.261,-1.947,-28.57
CN(C)C[C@H]1OC[C@@H]2CCN(S(=O)(=O)c3ccc(F)cc3)C[C@@H]21,-10.42,10.92,3.178,-1.826,-,-4.05
CC(=O)N1CCCC(c2nccnc2-c2ccc(CO)cc2)C1 (stereo not shown),-0.9182,-8.647,2.548,1.632,11.71,4.161
Cc1ccc(C2COCCN2C(=O)c2cccc(N(C)C)c2)o1 (stereo not shown),-1.653,6.667,0.7777,6.612,8.309,-10.5
Cc1cnn(CCNCc2ccccc2F)c1,-30.27,5.539,-2.099,-0.3736,19.59,-12.76
O=C(O)C(F)(F)F.O=C1CC2(CCN(Cc3ccccn3)C2)CN1c1cncnc1 (stereo not shown),-,-,-,-,6.655,-
CC(NC(=O)NCCN1CCCCCC1=O)c1nncn1C (stereo not shown),4.7,-31.03,1.918,0,14.9,-10.79
CN(C)Cc1ccnc(C2CCCN2Cc2cccc(F)c2F)n1 (stereo not shown),-6.885,7.778,4.984,5.811,9.551 & 1.719,9.435
O=c1[nH]c2cc(S(=O)(=O)N3CCC(c4ccsc4)CC3)ccc2o1,-2.368,0,1.799,-15.01,19.82 & 0.6028,-31.19
Cc1ccc(OCC2CCCN(CC3CCOCC3)C2)cc1 (stereo not shown),-9.104,4.706,-0.4753,-3.931,34.89,-1.378
CSC(C)(C)CNC(=O)NC1CCN(CC2CC2)C1 (stereo not shown),20.08,-8.333,0.6176,-4.132,2.957,-6.706
O=C(NCCc1ccn(-c2ccccc2)n1)N1CCSCC1,-20.38,5.539,-2.14,0,4.747,-17.94
CNC(=O)COC(=O)c1ccoc1CN1c2ccccc2CC1C (stereo not shown),-17.52,2.041,4.49,4.727,25.88,5.758
CSC(C)(C)CNC(=O)NC1CCN(C)CC1,-11.86,2.075,4.739,5.357,7.34,-15.22
CC(C)=CCn1ncc(N2CCOCC2)cc1=O,-8.751,7.216,6.477,20 & 6.349,17.82,-25.52
CNC(=O)Cc1ccc(NC(=O)NCc2nc(C)sc2C)cc1,-3.104,2.381,1.935,-1.106,-23.34,-13.14
CN1C(=O)C2(CCN(Cc3cccnc3)CC2)c2cccc(F)c21,5.546,6.897,7.486,2.254,-,-
NC(=O)C1CCN(C(=O)c2ccn(-c3cccc(Cl)c3)n2)C1 (stereo not shown),-22.63,1.17,1.015,5.357,14.64,8.815
O=C(Nc1ccc(N2CCCC2)nc1)N1CCc2ccccc2C1,-13.33,9.091,13.26,2.692,31.03,21.16
Cc1ccccc1NC(=O)Nc1cc(N2CCCC2)ncn1,-2.838,5.155,1.867,-6.554,10.42 & -12.4,2.328
c1ccc(CN2C[C@@H]3OCCN(c4cccnc4)[C@@H]3C2)nc1,0.6462,1.97,-1.091,3.553,-,-0.7985
COC1CCN(C(=O)Cn2ncc(N3CCCCC3)cc2=O)C1 (stereo not shown),-10.43,5.603,5.869,-1.394,7.856,-40.23
Cc1cc(C)c2c(c1)C(NCc1nnc3n1CCC3)CCCO2 (stereo not shown),1.798,7.407,5.472,1.381,20.82,-19.26
COCCn1cc(C(=O)N2CCCC(n3cncn3)C2)ccc1=O (stereo not shown),-12.05,-3.361,-0.1483,1.512,-27.16,-11.35
CCOc1ccc(CC(CNC(=O)c2ccc(C)s2)C(N)=O)cc1 (stereo not shown),-9.768,-3.361,8.455,11.45,0.8155,-11.32
CN(C)C(=O)CC1CC2(CCN(Cc3ccco3)CC2)c2ccccc21 (stereo not shown),-0.9488,6.098,4.105,1.754,-,-5.233
NCC(=O)N1CCCC1c1ccc(C(=O)NCc2ccoc2)s1 (stereo not shown),-0.9164,1.571,-3.848,6.79,22.57,-25.58
COC[C@@]12CCC[C@@H]1CN(C(=O)N1CCCC1)C2,-4.805,5.028,3.072,7.636,-,1.751
O=C(O)[C@]12CCCN(C3CCOC3)C[C@H]1CN(c1nncs1)C2 (stereo partly shown),17.96,1.105,6.213,1.98,-,-17.25
O=C(CN1CCN(CC(O)C2CC2)CC1)NCc1ccccc1 (stereo not shown),-6.879,12,2.743,-0.6588,-,-10.62
CN(Cc1ccccn1)C(=O)c1nn(C)c2c1CCN(CC1CC1)C2,-0.6044,8.589,-0.7597,-,-,-12.24
COCCNC(=O)c1nc2c(s1)CCCN2c1ccc(C)nn1,8.324,-4.478,0.1238,21.81 & 14.81,27.21,-23.46
Cn1nnc2c1CCN(Cc1ccco1)C2COCc1ccccc1.O=C(O)C(F)(F)F (stereo not shown),-,-,-,-,9.255,-
O=C(NCCN1CCOCC1)c1ccn(COc2ccc(F)cc2)n1,-4.743,0,2.316,-0.2309,34.74,-8.673
CCNC(=O)NCc1ccc(-n2ccc(C(F)(F)F)n2)cc1,1.86,4.762,6.424,-6.958,0.1507,-6.15
O=C(O)C(F)(F)F.c1ccc(N2CCC3(CCCN(c4ncccn4)C3)C2)nc1 (stereo not shown),-,-,-,-,-11.7,-
Cn1ccnc1Sc1ncc(C(=O)N2CCCCC2)cc1Cl,0.2059,8.38,5.619,-8.065,0.683,-22.35
[H][C@@]12COC[C@]1([H])[C@@H](OCc1ccccn1)CN2C(=O)c1ccnnc1,-,-,-,-,19.04,-
COCC1c2c(cnn2C)CCN1Cc1ccc(F)cc1 (stereo not shown),-5.025,5.882,6.202,0.6211,-,-0.9408
CCc1ccc(S(=O)(=O)N2CC[C@@](O)(CCOC)[C@H](C)C2)cc1,-18.8,3.922,1.414,-0.2439,-3.149,1.479
[H][C@]12CC[C@]([H])(CN(C3Cc4ccccc4C3)C1)N(Cc1nc(C)no1)C2,-,-,-,-,29.16,-
CNC(=O)c1ccc(-n2c(COCC(=O)O)nc3c(C)cccc32)o1,-5.838,-2.273,4.302,9.208,18.19,-7.547
Cc1cc(F)c(S(=O)(=O)NCc2ccnc(N(C)C)n2)cc1F,-2.353,8.387,4.352,-0.2415,29.29,9.872
O=C(c1cnccn1)N1CCC2(CC1)CCN(Cc1ccccn1)C2=O,0.4555,0.8,1.048,4.459,-,-6.876
COCC(=O)N1CCC(c2cc3n(n2)[C@@H](C(F)(F)F)C[C@@H](C)N3)CC1,-1.446,0.7491,0.3119,1.611,1.295,-1.118
Cc1cc(Cl)ccc1NCc1cnn(C2CCS(=O)(=O)C2)c1 (stereo not shown),10.86,5.195,1.747,-,17.43,-17.42
CCCN(C(=O)c1cnns1)C1CCCN(Cc2ccccc2)C1 (stereo not shown),2.424,2.186,2.012,18.34,15.37,-14.85
COc1ccccc1-c1cc(C(F)(F)F)c2c(C)nn(CC(=O)O)c2n1,11.4,6.452,2.35,2.487,-3.252,12.83
C=Cn1ncc(CN2C[C@@H]3C[C@@H](O)CN3C[C@H]2Cc2ccccc2)c1C,-7.526,8.889,2.944,6.295,-,9.476
Cc1nccc(C(=O)N2CCCC2c2noc(C(C)C)n2)n1 (stereo not shown),-27.88,3.79,-0.0327,4.608,-0.09445,-25.67
COCCN1CCC(CN(Cc2ccncc2)C2CCCCC2)CC1,-9.507,2.703,2.827,-3.636,17.23,-20.28
Cc1c(C(=O)O)sc2nc(C(F)(F)F)ccc12,11.8,5.195,1.48,7.561,11.4,-25.07

The first 7 entries again:

Result for Cc1cc(C)n(C2CCN(C(=O)c3cn4ccsc4n3)C2)n1 (stereo not shown) was ClpP1P2: -7.495%; TcHisRS: 2.469%; PfKRS1: 11.29%; CoaBC: 3.313%; Leishmania in macrophages: 32.83%; Pks13 thioesterase: 15.11%.
Result for CO[C@@H]1CO[C@@]2(CCCN(Cc3nc(C)cs3)C2)C1 was ClpP1P2: -7.155%; TcHisRS: 3.015%; PfKRS1: 1.48%; CoaBC: -7.27%; Pks13 thioesterase: 0.3633%.
Result for CC(C)N1CC2(CCC1=O)CCN(C(=O)c1cccc(F)c1F)CC2 was ClpP1P2: -2.906%; TcHisRS: 6.667%; PfKRS1: -0.229%; CoaBC: -1.261%; Leishmania in macrophages: -1.947%; Pks13 thioesterase: -28.57%.
Result for CN(C)C[C@H]1OC[C@@H]2CCN(S(=O)(=O)c3ccc(F)cc3)C[C@@H]21 was ClpP1P2: -10.42%; TcHisRS: 10.92%; PfKRS1: 3.178%; CoaBC: -1.826%; Pks13 thioesterase: -4.05%.
Result for CC(=O)N1CCCC(c2nccnc2-c2ccc(CO)cc2)C1 (stereo not shown) was ClpP1P2: -0.9182%; TcHisRS: -8.647%; PfKRS1: 2.548%; CoaBC: 1.632%; Leishmania in macrophages: 11.71%; Pks13 thioesterase: 4.161%.
Result for Cc1ccc(C2COCCN2C(=O)c2cccc(N(C)C)c2)o1 (stereo not shown) was ClpP1P2: -1.653%; TcHisRS: 6.667%; PfKRS1: 0.7777%; CoaBC: 6.612%; Leishmania in macrophages: 8.309%; Pks13 thioesterase: -10.5%.
Result for Cc1cnn(CCNCc2ccccc2F)c1 was ClpP1P2: -30.27%; TcHisRS: 5.539%; PfKRS1: -2.099%; CoaBC: -0.3736%; Leishmania in macrophages: 19.59%; Pks13 thioesterase: -12.76%.

Source: ChEMBL document CHEMBL3988442, “University of Dundee, Small-Polar-MMV Screening Library” (2021).